Reference: article doi:10.1101/2020.11.05.369959

The chains behind the UniProt entries cited, without tags or fusion partners.
UniProt Q9C0K0: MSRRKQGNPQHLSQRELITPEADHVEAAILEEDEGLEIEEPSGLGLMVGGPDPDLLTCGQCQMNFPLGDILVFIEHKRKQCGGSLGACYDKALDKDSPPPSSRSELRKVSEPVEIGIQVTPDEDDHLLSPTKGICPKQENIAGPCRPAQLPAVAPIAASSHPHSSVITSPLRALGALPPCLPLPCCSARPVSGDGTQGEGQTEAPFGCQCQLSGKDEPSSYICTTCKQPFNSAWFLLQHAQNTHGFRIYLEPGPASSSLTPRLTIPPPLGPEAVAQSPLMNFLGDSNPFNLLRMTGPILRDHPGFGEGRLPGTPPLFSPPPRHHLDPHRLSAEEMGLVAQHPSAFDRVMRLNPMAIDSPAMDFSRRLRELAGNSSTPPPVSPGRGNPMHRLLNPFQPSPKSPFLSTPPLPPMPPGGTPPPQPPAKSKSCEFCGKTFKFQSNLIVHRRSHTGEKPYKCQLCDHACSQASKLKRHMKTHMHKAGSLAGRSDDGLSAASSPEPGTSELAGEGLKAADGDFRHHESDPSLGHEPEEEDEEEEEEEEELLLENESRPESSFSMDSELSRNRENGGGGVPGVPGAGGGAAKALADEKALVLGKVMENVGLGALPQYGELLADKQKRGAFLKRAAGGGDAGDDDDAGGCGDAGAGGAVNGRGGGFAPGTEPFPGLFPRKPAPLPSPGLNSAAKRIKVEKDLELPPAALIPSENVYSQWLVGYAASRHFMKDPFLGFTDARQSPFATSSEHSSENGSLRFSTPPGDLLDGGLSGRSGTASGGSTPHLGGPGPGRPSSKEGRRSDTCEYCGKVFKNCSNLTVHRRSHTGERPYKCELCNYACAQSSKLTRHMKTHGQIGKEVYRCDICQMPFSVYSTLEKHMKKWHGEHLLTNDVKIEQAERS
UniProt P63208: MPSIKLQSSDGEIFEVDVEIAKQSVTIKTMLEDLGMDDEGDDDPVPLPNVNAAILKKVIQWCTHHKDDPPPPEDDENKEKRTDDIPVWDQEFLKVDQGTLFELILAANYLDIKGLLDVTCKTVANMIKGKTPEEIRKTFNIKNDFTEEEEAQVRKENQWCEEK
UniProt P51587: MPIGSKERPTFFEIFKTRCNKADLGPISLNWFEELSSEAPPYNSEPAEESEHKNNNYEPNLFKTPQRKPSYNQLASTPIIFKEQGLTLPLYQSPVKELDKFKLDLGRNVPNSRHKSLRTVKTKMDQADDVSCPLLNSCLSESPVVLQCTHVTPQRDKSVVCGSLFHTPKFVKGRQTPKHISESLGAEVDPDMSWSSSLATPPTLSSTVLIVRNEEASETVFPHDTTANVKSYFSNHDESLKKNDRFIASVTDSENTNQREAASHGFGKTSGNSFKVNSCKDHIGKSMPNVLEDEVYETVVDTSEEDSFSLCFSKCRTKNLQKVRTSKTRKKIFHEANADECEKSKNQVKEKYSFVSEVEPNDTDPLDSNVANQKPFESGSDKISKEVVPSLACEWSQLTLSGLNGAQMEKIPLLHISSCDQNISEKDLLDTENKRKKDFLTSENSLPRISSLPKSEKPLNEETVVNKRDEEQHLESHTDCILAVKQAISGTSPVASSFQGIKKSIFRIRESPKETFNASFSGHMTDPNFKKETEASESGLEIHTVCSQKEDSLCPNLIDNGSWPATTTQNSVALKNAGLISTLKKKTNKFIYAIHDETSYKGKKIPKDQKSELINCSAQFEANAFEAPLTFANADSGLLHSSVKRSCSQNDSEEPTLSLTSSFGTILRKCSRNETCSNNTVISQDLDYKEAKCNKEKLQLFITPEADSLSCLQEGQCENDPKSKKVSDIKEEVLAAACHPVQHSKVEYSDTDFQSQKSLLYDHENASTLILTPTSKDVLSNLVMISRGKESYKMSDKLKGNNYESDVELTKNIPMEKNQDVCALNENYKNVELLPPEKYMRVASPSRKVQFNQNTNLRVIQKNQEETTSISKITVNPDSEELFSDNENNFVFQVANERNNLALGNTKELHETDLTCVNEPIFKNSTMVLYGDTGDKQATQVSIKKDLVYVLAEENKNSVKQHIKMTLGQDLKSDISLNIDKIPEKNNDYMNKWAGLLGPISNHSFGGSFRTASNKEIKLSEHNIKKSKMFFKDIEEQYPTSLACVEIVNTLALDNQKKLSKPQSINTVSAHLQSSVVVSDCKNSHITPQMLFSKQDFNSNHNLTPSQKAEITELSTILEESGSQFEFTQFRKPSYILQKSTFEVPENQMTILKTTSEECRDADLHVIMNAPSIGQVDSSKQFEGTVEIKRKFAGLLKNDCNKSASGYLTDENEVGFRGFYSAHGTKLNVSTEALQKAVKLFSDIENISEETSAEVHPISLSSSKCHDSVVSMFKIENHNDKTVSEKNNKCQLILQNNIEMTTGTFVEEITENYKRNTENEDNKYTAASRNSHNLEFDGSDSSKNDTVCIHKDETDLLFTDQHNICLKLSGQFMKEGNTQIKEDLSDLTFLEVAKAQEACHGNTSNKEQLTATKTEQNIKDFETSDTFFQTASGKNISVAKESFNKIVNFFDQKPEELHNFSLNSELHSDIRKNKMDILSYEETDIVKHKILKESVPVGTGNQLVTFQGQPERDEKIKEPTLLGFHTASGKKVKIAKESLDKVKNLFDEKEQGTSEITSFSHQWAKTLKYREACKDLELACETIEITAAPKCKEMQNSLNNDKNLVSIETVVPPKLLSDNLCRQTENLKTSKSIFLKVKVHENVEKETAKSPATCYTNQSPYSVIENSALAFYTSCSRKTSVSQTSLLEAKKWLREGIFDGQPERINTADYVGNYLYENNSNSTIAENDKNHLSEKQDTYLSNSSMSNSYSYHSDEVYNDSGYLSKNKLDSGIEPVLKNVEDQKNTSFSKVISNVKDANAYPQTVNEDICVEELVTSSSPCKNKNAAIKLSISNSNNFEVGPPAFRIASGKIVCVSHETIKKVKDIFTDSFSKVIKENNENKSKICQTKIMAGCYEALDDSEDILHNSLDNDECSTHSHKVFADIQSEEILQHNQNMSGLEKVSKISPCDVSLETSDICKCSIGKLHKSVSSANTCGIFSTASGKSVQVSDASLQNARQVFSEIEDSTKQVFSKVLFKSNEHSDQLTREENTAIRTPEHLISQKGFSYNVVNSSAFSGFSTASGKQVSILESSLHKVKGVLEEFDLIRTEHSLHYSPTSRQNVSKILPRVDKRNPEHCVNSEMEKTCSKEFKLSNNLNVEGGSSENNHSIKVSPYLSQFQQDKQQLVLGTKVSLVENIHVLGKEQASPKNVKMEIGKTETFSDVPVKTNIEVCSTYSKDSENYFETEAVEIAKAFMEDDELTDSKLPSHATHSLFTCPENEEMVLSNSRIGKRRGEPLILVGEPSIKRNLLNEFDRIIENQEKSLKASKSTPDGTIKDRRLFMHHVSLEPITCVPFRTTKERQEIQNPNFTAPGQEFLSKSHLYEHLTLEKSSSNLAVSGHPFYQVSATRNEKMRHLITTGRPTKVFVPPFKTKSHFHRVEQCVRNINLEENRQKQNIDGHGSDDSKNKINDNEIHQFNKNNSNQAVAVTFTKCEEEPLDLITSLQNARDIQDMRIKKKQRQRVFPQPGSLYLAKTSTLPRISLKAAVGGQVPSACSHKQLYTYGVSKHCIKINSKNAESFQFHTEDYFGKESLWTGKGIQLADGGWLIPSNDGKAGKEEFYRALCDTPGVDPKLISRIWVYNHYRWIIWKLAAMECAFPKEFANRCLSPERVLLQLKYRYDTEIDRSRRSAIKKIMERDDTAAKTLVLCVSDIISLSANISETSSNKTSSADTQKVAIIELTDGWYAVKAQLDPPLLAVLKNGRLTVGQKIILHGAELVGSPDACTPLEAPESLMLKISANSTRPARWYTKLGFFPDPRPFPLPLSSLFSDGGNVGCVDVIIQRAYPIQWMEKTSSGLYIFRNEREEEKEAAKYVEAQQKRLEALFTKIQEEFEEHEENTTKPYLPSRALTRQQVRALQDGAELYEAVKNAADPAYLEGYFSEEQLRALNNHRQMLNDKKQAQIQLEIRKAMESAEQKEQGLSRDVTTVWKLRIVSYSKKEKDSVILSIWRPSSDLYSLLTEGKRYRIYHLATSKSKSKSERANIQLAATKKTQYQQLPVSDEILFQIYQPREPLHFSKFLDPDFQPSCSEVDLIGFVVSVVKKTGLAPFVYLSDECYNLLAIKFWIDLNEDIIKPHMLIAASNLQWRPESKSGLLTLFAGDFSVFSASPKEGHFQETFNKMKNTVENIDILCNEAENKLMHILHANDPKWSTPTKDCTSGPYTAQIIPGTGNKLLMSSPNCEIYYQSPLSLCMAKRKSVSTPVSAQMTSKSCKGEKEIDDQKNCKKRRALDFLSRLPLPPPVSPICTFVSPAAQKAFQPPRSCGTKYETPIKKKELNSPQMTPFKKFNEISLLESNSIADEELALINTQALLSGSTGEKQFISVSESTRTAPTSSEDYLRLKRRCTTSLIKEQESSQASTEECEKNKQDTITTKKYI
UniProt P50750: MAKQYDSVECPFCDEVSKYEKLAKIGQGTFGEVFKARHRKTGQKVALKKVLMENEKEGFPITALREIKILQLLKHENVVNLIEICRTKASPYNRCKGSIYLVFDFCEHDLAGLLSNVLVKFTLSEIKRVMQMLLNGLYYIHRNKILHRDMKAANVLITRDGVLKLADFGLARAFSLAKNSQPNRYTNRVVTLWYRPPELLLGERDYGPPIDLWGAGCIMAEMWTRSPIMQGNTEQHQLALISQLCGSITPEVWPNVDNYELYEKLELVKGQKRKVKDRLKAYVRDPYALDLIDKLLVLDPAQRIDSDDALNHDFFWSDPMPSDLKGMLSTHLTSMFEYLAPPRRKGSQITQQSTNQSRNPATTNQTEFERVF
UniProt Q16637: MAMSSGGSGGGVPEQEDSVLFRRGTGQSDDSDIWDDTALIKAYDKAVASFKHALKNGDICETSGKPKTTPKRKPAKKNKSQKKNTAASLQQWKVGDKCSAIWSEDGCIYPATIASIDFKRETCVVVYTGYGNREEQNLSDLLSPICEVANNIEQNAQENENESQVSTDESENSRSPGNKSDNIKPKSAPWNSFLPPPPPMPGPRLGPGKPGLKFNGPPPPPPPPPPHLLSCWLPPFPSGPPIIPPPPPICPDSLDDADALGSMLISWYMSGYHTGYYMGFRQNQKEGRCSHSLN
UniProt Q9UKV8: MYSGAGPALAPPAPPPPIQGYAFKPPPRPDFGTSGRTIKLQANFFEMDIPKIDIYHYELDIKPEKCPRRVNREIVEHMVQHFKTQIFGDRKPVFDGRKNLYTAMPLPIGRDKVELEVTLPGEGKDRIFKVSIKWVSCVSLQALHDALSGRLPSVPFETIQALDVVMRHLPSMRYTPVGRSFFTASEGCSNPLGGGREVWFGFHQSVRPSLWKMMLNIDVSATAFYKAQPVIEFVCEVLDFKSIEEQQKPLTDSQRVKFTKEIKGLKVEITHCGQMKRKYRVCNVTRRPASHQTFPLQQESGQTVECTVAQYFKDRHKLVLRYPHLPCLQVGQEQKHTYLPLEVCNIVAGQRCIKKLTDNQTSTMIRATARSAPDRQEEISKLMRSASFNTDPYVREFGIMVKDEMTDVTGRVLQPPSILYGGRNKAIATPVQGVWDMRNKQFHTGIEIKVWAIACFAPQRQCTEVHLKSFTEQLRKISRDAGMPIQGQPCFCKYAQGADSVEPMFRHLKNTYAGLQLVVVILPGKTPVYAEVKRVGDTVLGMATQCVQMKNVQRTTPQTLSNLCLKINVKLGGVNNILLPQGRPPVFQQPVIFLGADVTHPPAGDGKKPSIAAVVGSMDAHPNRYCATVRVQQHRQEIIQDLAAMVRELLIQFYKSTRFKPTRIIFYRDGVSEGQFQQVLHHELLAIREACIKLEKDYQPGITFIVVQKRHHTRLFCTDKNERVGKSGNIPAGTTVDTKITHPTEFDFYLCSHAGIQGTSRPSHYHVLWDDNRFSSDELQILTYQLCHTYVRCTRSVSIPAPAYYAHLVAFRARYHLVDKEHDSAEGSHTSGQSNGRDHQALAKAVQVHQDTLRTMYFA
UniProt O00311: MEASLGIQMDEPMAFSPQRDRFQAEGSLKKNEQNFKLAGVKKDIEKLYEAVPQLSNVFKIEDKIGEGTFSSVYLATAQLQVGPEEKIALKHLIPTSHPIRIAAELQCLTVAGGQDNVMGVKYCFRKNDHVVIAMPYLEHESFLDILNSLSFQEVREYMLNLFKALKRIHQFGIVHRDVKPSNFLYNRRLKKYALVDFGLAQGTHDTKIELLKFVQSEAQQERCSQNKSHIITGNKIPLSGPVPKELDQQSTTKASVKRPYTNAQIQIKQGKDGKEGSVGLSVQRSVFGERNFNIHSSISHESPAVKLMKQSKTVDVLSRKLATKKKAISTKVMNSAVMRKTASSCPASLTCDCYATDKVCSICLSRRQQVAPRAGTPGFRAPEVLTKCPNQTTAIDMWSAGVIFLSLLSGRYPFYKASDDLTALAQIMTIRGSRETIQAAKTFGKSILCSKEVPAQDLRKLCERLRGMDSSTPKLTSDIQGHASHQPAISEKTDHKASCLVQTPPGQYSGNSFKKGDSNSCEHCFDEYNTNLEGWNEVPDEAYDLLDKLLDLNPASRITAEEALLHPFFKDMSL

These substances were tested against Flag-BCL11b (B-cell lymphoma/leukemia 11B) (UniProt Q9C0K0) (assay: affinity purification with mass spectrometry).

binding, binds:
CDK6 (from UniProt Q00534 1-326), SKP1 (from UniProt P63208 1-163), BRCA2 (from UniProt P51587 1-3418), PARP1 (from UniProt P09874 1-1014), KMT2A (from UniProt Q03164 1-3969), CDK9 (from UniProt P50750 1-372), TDP-43 (from UniProt Q13148 1-414), CDC20 (from UniProt Q12834 1-499), DCAF1 (from UniProt Q9Y4B6 1-1507), EWSR1 (from UniProt Q01844 1-656), SMN1 (from UniProt Q16637 1-294), Ago2 (from UniProt Q9UKV8 1-859), CDC7 (from UniProt O00311 1-574), FUS (from UniProt P35637 1-526)

Results are given in words; binding and its absence hold for the method and conditions named. Binding seen in cells or lysates may run through a third protein. A yes stands for co-enrichment or nearness to the bait. Other partners may have been found.
